# Measured values from PMC7819943, “Rice protein-binding microarrays: a tool to detect cis-acting elements near promoter regions in rice”.
# Protein sequences, listed by entry. Tags and fused reporters are not part of them.
# UniProt Q0JBA9, entry or part of it: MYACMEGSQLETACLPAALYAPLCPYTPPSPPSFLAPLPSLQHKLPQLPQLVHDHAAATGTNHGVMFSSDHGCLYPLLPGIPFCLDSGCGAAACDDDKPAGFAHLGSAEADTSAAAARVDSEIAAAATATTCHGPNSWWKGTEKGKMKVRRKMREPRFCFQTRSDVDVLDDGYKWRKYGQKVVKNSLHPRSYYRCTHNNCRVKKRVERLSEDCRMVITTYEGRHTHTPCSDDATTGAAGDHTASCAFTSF
# The other results are listed elsewhere or left out.
# Biological target: OsWRKY34 (Oryza sativa, UniProt Q0JBA9 1-250)
# Assay: protein-binding microarray (RPBM); PBS, 2% BSA, 51.3 ng/ul salmon testes DNA, 50 uM zinc acetate, 200 nM TF, 25 C, 1 h; high values mean tight binding
# Settings: protein: recombinant; tags: N-terminal polyhistidine and DsRed monomer fusion (pET32a); label: CyDye5-dUTP incorporated in the synthesized complementary strand; 3' TTTTT single-stranded linker to array surface; dsDNA, one strand shown
# Method in brief: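 Binding signal is reported as fluorescence intensity per feature (arbitrary units) from an Axon 4000B scanner. Incubation used 200 nM of each Ni–NTA-purified, N-terminally polyhistidine- and DsRed-fused transcription factor from E. coli BL21-CodonPlus on a double-stranded custom Agilent array for 1 h at 25 °C, with 50 µM zinc acetate in the buffer, followed by washing.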
row,Sequence,binding signal
1,TTCCTCTATCCTTGATTGATTCTTTCTTTTATTGTTTTTTCGGAGTCACCTAGTGCAG,13200 fluorescence intensity (a.u.)
2,TGAACAAGTGCAAAACTGCTTCTCGTTCGGTATTCTTTCACGGAGTCACCTAGTGCAG,8090 fluorescence intensity (a.u.)
3,GGCCACTCGTGTCTCTCTCTCTCTCTCTCATCTCTAATTTCGGAGTCACCTAGTGCAG,8870 fluorescence intensity (a.u.)
4,GCAACCATGCAATTCTGTATTTATGTTAACCTTGTTGTTTCGGAGTCACCTAGTGCAG,9260 fluorescence intensity (a.u.)
5,GCCTCCGCCTCCGTGCGCAACCGCCGCCTCGTCCGCGACCCGGAGTCACCTAGTGCAG,11300 fluorescence intensity (a.u.)
6,GCCGCCGACCGCCACATATCCACACACCTCGACACGACGGCGGAGTCACCTAGTGCAG,8950 fluorescence intensity (a.u.)
7,CTGCCACCACCAGCTAGCACTGACCCGCCTCCTCCTTTATCGGAGTCACCTAGTGCAG,9400 fluorescence intensity (a.u.)
8,TCTCAATTGCACCTCATTTAATCCTCATTTTTCATCTTTTCGGAGTCACCTAGTGCAG,11800 fluorescence intensity (a.u.)
9,CGTCTGTTCTCGTCTTCAGCTGAATCTGATTTTGTTTACACGGAGTCACCTAGTGCAG,11200 fluorescence intensity (a.u.)
10,CTCCTCACTCCTATACTCACCTCATCCCTATCGTCTTGCCCGGAGTCACCTAGTGCAG,8610 fluorescence intensity (a.u.)
11,TGATTTTTCGTACCCAACTTTGATCGTCCGTTTTATTTGACGGAGTCACCTAGTGCAG,10200 fluorescence intensity (a.u.)
12,CGAACAGTCAAACATGTTTAAAAAAGTCAACGGCGTCAAACGGAGTCACCTAGTGCAG,9670 fluorescence intensity (a.u.)
13,AGTCTCTTTGACTTTTTACTAGTTAAAATTTGACCAAGTTCGGAGTCACCTAGTGCAG,13600 fluorescence intensity (a.u.)
14,GTTGCCGTACACCTGCAGCTTTGGAAGCTTCCAGTTAATACGGAGTCACCTAGTGCAG,9680 fluorescence intensity (a.u.)
15,GCTATACATCCGCTTGTTTGTTTCTCACTATCCTCGTTTGCGGAGTCACCTAGTGCAG,13400 fluorescence intensity (a.u.)
16,TCCCTCTAAACGATCTTTTTTGTGCGATTTCTTTTTCAAACGGAGTCACCTAGTGCAG,8380 fluorescence intensity (a.u.)
17,TTAAACTGTCATACATACATAACTTTTCAGTCACATCGTACGGAGTCACCTAGTGCAG,9490 fluorescence intensity (a.u.)
18,TTTATCTCTCTTCTCTCTGTTTTTCCGTGTCAGCAAATATCGGAGTCACCTAGTGCAG,11400 fluorescence intensity (a.u.)
19,ACACGGATATAACACTATATCTAGATTCGTTCGTTGTACTCGGAGTCACCTAGTGCAG,9810 fluorescence intensity (a.u.)
20,CTTCTCTGCCCGCCGATCTGCCTCGCCACGCGGTTCGTCGCGGAGTCACCTAGTGCAG,9520 fluorescence intensity (a.u.)
21,GACCACTGCTGCTTGCGACGCCGTCCTCCTCCCGCATCGCCGGAGTCACCTAGTGCAG,9000 fluorescence intensity (a.u.)
22,CTACCGTTGACTTTGGTTGGGCCACATCTTCAGAGGTCAACGGAGTCACCTAGTGCAG,15700 fluorescence intensity (a.u.)
23,TGTGAATCACTCTATAGTTTTGGATCATCGCAGCTTAAACCGGAGTCACCTAGTGCAG,8350 fluorescence intensity (a.u.)
24,GTCTTTGTTGTTTTGTGGAATAAATTTCCTGCAGATTGTCCGGAGTCACCTAGTGCAG,8240 fluorescence intensity (a.u.)
25,TACCATCAAATTTGCGTGTCTCAACTTTTTTACCACTCAACGGAGTCACCTAGTGCAG,8320 fluorescence intensity (a.u.)
26,GTATTTAGGCCACAAGGATGATGCTACACTCTGCTTACTACGGAGTCACCTAGTGCAG,9120 fluorescence intensity (a.u.)
27,GTTTTCCTTTTTTTTTTTTACCGATTGTCCAATTCAAGTTCGGAGTCACCTAGTGCAG,9390 fluorescence intensity (a.u.)

row,Sequence,binding signal
1,ATTCCCATTTTGCACGTATAGACAGTTAATCAAGATCATTCGGAGTCACCTAGTGCAG,10700 fluorescence intensity (a.u.)
2,GCGTCCTTTGCGTCCTTTTGCTGCTCCGTCCTCCATGATCCGGAGTCACCTAGTGCAG,8050 fluorescence intensity (a.u.)
3,TTTATACATTGTGGTTGCTCTAGGGGTGTGCAAAATAGTTCGGAGTCACCTAGTGCAG,12400 fluorescence intensity (a.u.)
4,CCTCTCTCTCTCTCTCTCTCTCTCGCTCGCTTGCTTTACCCGGAGTCACCTAGTGCAG,9800 fluorescence intensity (a.u.)
5,CTTCTCCACGGCTTCTATGGTTGGCGTCGCCCGATAAGACCGGAGTCACCTAGTGCAG,9720 fluorescence intensity (a.u.)
6,CGTCTCGCTTTCCCAGCCGATTTATTTCTAACGATGAAATCGGAGTCACCTAGTGCAG,9450 fluorescence intensity (a.u.)
7,TTTCCTCTCTCTCTCTCCCAGCCCGCACTCCCTTTCTCTCCGGAGTCACCTAGTGCAG,8780 fluorescence intensity (a.u.)
8,CCACGCTATCGATTTCCTCTTTTTTTTTGCCACCCTCGTCCGGAGTCACCTAGTGCAG,11300 fluorescence intensity (a.u.)
9,CACCTTTGACCTTTCCAACCTAATTAATTAGCTACTACCCCGGAGTCACCTAGTGCAG,8620 fluorescence intensity (a.u.)
10,CCGGCCCCGCCGCCCGCCCGCACCGCTCCTCATTCCGTCGCGGAGTCACCTAGTGCAG,8480 fluorescence intensity (a.u.)
11,ATGCCATTTTTAACCTTACCAAGTTTTAGTAAAGTTGCCACGGAGTCACCTAGTGCAG,8600 fluorescence intensity (a.u.)
12,CACGAGTGTTCACGTCGACCATAATGGCACCACCACCCCGCGGAGTCACCTAGTGCAG,9370 fluorescence intensity (a.u.)
13,TCCATTAGTCTCCAGCTATACGCATCTTCCCTAGCTTGCTCGGAGTCACCTAGTGCAG,8810 fluorescence intensity (a.u.)
14,AATCTAACTCACCAAACCCATCTTTATCATATATAATCTTCGGAGTCACCTAGTGCAG,8210 fluorescence intensity (a.u.)
15,TCCCTCCGTTTCGTATTATAAGTCTCTTTGACTTTTTACTCGGAGTCACCTAGTGCAG,11000 fluorescence intensity (a.u.)
16,GTGCGGACTGCCTGCCCTCTTTCCCATTTTGCCCCTGTTTCGGAGTCACCTAGTGCAG,8690 fluorescence intensity (a.u.)
17,CATCCTGTTGGCCGAAGCCGGTATTGCTCTTATTCACCATCGGAGTCACCTAGTGCAG,10600 fluorescence intensity (a.u.)
18,GACATATCTCCTCGTTGTTTGCATGTCACTTAAATGATTACGGAGTCACCTAGTGCAG,10300 fluorescence intensity (a.u.)
19,AGATTCCGACGACAGCAAAGACAGCGACGGGAGGGGAGGGCGGAGTCACCTAGTGCAG,9790 fluorescence intensity (a.u.)
20,TCCCCTAGCTCTCTCTCGTCCACCTCGGGTTCCAACCGCACGGAGTCACCTAGTGCAG,9420 fluorescence intensity (a.u.)
21,AAGAGGGCGCGGGTGGCGGGGATGGGCGAGGGGAAGGCGGCGGAGTCACCTAGTGCAG,17700 fluorescence intensity (a.u.)
22,GCCGTATTGGATCGCCCTGCATATCTTGTCCCTGGCCTCGCGGAGTCACCTAGTGCAG,8780 fluorescence intensity (a.u.)
23,CTGCCAGCCGTATAAACCTCTTCGGATCTTGTTGGTAGTACGGAGTCACCTAGTGCAG,8630 fluorescence intensity (a.u.)
24,GATGCAGGATTCAGGATGGGTATTCAGATTTATCAAATGACGGAGTCACCTAGTGCAG,8500 fluorescence intensity (a.u.)
25,CGCGCTTCTGCCGCTGCCCGACCCTATTACCCAAGCCCATCGGAGTCACCTAGTGCAG,8120 fluorescence intensity (a.u.)
26,ATCCGCGTGCATCCACTCTACTTATATCGTTCTTTTTTCCCGGAGTCACCTAGTGCAG,12500 fluorescence intensity (a.u.)
27,TAGATAGGGGATGTATAGGACAAGAGAGAACACATGCATTCGGAGTCACCTAGTGCAG,8690 fluorescence intensity (a.u.)

# Part of the list above, as tab-separated lines:
row	Sequence	binding signal
2	GCGTCCTTTGCGTCCTTTTGCTGCTCCGTCCTCCATGATCCGGAGTCACCTAGTGCAG	8050 fluorescence intensity (a.u.)
4	CCTCTCTCTCTCTCTCTCTCTCTCGCTCGCTTGCTTTACCCGGAGTCACCTAGTGCAG	9800 fluorescence intensity (a.u.)
